Results: paper PMC8835298

B1: kinesin 8B (PBANKA_0202700) (protein, UniProt A0A509AB64 1-1460)
chain: MKDKEIVKLNSNGDNHLINLKNVQDKNLSSSGIPSRYSSFESDVQASKQKDDHIYNTDKLNKIMNNTSSIGDTQYCNNRIDDTKLPEKLLQKYFSNNSTYKYTNSIEHQNMMNAHNEDLSTYQKNEAAEHIDINNHNKEQKKNEHEELKGVHDLNFQNNSYKKEEICEKKLIEPIKNTSIKKEEDQKDTMKIFVSNYGDNIYRNTEIYKTHTESCRNFTDQKYKTQYYDENKLSPLYKNKSDKFYDTFSEEKKELHFNSIDELMKEIQIFNNSMQTITSNDPTFIQKNNKHIYSENNSNKREANEINNSLIIENTVSCSNISTDACFGESPQNSNREKSDILDNEEYNLQEHSNNSCYEKNESIKSFKNFVKSEIKTENSILFTEDKEPQHTELKQDNLMGSQLNKSDVEYTDQESDNNNSCKQNDVSSISMKLTDVEPYTKLDNEESIETSKISSNQWEEMKKSFYDIENNLLYLNRENNYSLERNIEGTELLNVNNSETNKEIKFEKNETPQISYHTDEYKEKNEEIIKSQLDSDKKSTIYNYIHKDSFPNYEYDDTETKHLNILKNCSEKDEAFQNKNNISEQFNYNYLQDFTNKQNSLNGFTPKDYQNNNNYYYTDKEIDIHSPYARRDVLPDLSLERCIYSKEGSPNGKTDTLNGPDTSNRTDASRINSAGKGRTPRSSKSGGSTKTAFAIVKTGKIKQAEKDLVKTPKVFKKTEGNTRTSVNGNSNGNVGTKSPSNYNISSSANYSTHCNNGGNGVTPTSTKTNKNEKDITYNMNVVIRCRPMSNSEKNEGAKNVIKIMDNKMIVLLDPSDNTDNVLRQNRTKEKRYCFDYVFDENSTQEDVYNNSVKPLVDAVIKGYNSTVFAYGATGAGKTHTIIGYKNEPGIMMMILQDLFKKIKTLKAMNEYKIKCSFIEIYNENICDLLNPSSEYLDLREDPVKGITVSNIFEVCTTSVEEIMELIHTGNRNRTQEPTDANRTSSRSHGVLQVIVEETEKGQGLYQQTKKGKLCVIDLAGSERASQTNNKGMRMLEGANINRSLLALGNVINALVSRSKGTSKSNFIPFRDSKLTRLLKDSLGGNCKTLMIANISPSHLSYEDTHNTLKYANRAKNIKNVVTSNSVVVKHHLTMYIDIIEKLKTEIECLKEQLNDKEKTHHFIISESNSTNYDYYDSVKDCDKNSSREELLNIIYFLKRENQKLRCNLGSITPHISTSDSSTPTNEFIKYTEEINNIKIVNEKLFIDNKKFKVNIQEYIQIIENIKEVNHKYKAQINSLKNMLYNHDVSHLQMRLWLDDLKRKYTQLKENITDKDNAQLLEGLQDELNKVLNERKQIKNFILNIEQNLVENKEVNMDALKGNQIKMLEENKNKMENQLQININQTNNLINKLVANIKDDQMKSFMYLFYTNTILMQEREDFQDMFELSSVIINHKEKQLQQLIETSKISNLFNIIKNKI
B2: dynein intermediate-chain, putative (PBANKA_1018300) (protein, UniProt A0A509AKV0 1-592)
chain: MIDYYYCYTNNKSAIGKKCKFSKSKSQIIGRIEPNNQIKKKYMYKENINYNDENIKKYSEEYINIESVKLENKFFYHSEGGWTKDVDISEHQNKLKYIKRLDKDINLINSLKYLMNETTKIINKNNCINIYEEYFKDDIKNDEHFKIKSLLVIKDKLRKYNRFVTSIKWANDNTHKIAISYCVNNYQKILNNTPKNCLLYNLNEINNPYQILYSKSFIKCLRFNHKNSDLLLAGSYDGTIHLWDLRKKNNLCESSSINCSHKNIVNDITWLQTKTNNQCLSTSSDGLCLIWDIRNLSNHIESFYLNKDTTDTFDLLEKSNIISNNLGGTLSPDNPTKNTQKEHSTSKLDANDDNYYSANYIEWCLEAGPSKILVGTDEGYILSLSKRQSKHLELLQKYGTSNEKHLSAITSIKRVSINLKYFLTTDKWGFNIWSEDIKFPIISNYYNESIINKGHWIHDSPFFILTRKDGYLDFWNILSNFNEPTIKHKICNSSITEIDAHLNNRYISIGNEEGDIHILKLGKSFCTNSSENKNSLDELLERESKREKNLEYIRKQLNCIKKKKEYLSFSDIQIQDQQIKETERIYDSIRQL
B3: dynein light-chain 1 (PBANKA_0708100) (protein, UniProt A0A509AMN4 1-198)
chain: MNRTVVKEVTISQCIKNWEQKTGKKISEEENVSFICNIPLIEKLDQSINTLEKCKRLSLSTNRIEKFVPMSGLKNIEILSIGRNCIKKLQFLEDISGTLKQLWISYNNIDKLDNLQSLKNLQVLYLFHNKIKGLEEIDKLNTLPELIELGLKGNPIYEGRTNEYMKLVILKKLPQLKVVDNETITENQRNDSLTIEVV

biological target: PbI2–mCherry (Plasmodium berghei); test: affinity purification with mass spectrometry; soluble proteins of purified P. berghei schizonts; RFP-Trap_A beads overnight at 4 °C in 20 mM Tris, 150 mM NaCl, 0.5% Triton X-100, pH 7.5; 10 washes; LC-MS/MS, 5 biological replicates against the parental wild type (t-test, FDR < 0.05, S0 = 1)

Binder | binding
B1 | binds
B2 | binds
B3 | binds

Results are given in words; binding and its absence hold for the method and conditions named. Binding seen in cells or lysates may run through a third protein. A yes stands for co-enrichment or nearness to the bait. Other partners may have been found.
